Reference: publication PMC7554048, “FBI-1 enhanced the resistance of triple-negative breast cancer cells to chemotherapeutic agents via the miR-30c/PXR axis” (Cell Death & Disease, 2020)
These are yes or no findings as the source states them, for the method shown. In cells and extracts the contact can be indirect. Tags and fused reporters may be left off the sequences shown.

Protein sequences, listed by entry. Tags and fused reporters are not part of them.
UniProt O95365: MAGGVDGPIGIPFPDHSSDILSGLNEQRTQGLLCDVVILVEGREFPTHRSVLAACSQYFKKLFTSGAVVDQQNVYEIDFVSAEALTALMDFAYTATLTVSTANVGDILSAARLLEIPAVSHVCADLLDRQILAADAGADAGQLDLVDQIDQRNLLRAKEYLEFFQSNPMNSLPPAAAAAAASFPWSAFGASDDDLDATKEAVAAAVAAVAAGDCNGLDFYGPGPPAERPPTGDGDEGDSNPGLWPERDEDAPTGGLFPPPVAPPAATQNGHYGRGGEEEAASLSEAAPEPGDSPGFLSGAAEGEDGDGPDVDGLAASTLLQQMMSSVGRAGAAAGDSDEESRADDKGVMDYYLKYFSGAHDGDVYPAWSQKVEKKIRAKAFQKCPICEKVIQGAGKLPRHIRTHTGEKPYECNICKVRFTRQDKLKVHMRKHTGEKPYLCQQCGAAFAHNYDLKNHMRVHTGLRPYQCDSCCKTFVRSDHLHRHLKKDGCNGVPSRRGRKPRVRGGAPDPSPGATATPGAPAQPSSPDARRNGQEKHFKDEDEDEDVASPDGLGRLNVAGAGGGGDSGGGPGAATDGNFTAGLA

Target: FLAG-FBI-1 (factor that binds to inducer of short transcripts-1) (UniProt O95365)
Assay: co-IP; TNBC PDC No. 6 (high PXR) or No. 3 (low PXR) transfected with FLAG vector or FLAG-FBI1 vector; lysed 48 h after transfection; FLAG-FBI-1 separated with beads carrying monoclonal FLAG antibody; HA-PXR examined with monoclonal HA antibody by western blot

B1: HA-PXR (pregnane X receptor) (protein, UniProt O75469 1-434)
chain: MEVRPKESWNHADFVHCEDTESVPGKPSVNADEEVGGPQICRVCGDKATGYHFNVMTCEGCKGFFRRAMKRNARLRCPFRKGACEITRKTRRQCQACRLRKCLESGMKKEMIMSDEAVEERRALIKRKKSERTGTQPLGVQGLTEEQRMMIRELMDAQMKTFDTTFSHFKNFRLPGVLSSGCELPESLQAPSREEAAKWSQVRKDLCSLKVSLQLRGEDGSVWNYKPPADSGGKEIFSLLPHMADMSTYMFKGIISFAKVISYFRDLPIEDQISLLKGAAFELCQLRFNTVFNAETGTWECGRLSYCLEDTAGGFQQLLLEPMLKFHYMLKKLQLHEEEYVLMQAISLFSPDRPGVLQHRVVDQLQEQFAITLKSYIECNRPQPAHRFLFLKIMAMLTELRSINAQHTQRLLRIQDIHPFATPLMQELFGITGS
B1 was tested, and the binding was “no binding”.
